Measured values as given in publication PMC12296510.
Read-outs that look alike come from different tables or passages of the source. These are yes or no findings as the source states them, for the method shown. In cells and extracts the contact can be indirect. These calls come from enrichment with a bait or labelling near it, and not all partners need be listed.

Sequences of proteins named here, by UniProt entry; tags and fusion partners are left off.
UniProt Q16537: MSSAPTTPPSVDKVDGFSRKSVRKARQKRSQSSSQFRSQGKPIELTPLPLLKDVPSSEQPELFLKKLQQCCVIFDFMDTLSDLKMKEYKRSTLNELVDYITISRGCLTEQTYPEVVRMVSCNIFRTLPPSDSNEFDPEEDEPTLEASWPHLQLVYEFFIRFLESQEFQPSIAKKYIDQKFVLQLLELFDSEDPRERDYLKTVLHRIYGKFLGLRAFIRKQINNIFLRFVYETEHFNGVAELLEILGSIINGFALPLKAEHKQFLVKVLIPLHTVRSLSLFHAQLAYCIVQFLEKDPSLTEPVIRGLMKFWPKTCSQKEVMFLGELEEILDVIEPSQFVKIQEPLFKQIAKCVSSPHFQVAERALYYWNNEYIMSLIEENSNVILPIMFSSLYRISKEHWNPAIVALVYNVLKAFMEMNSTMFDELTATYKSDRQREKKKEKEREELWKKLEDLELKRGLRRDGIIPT
UniProt P67775: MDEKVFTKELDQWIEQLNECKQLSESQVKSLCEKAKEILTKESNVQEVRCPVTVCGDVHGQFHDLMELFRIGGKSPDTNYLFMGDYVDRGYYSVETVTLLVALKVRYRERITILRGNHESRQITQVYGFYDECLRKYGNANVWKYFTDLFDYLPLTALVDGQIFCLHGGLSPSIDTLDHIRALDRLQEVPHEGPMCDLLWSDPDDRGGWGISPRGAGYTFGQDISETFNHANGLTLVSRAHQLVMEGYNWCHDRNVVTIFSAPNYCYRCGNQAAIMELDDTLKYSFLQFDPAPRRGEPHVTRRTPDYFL
UniProt P62136: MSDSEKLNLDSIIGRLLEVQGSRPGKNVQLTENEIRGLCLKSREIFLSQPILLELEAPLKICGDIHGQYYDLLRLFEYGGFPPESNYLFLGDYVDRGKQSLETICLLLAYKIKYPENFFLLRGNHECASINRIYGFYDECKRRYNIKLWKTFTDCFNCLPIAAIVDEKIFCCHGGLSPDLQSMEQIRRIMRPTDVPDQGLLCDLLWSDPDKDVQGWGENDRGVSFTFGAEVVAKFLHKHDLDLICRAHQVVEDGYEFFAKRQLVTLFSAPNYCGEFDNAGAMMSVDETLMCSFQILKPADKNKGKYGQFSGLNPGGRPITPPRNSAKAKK
UniProt P30154: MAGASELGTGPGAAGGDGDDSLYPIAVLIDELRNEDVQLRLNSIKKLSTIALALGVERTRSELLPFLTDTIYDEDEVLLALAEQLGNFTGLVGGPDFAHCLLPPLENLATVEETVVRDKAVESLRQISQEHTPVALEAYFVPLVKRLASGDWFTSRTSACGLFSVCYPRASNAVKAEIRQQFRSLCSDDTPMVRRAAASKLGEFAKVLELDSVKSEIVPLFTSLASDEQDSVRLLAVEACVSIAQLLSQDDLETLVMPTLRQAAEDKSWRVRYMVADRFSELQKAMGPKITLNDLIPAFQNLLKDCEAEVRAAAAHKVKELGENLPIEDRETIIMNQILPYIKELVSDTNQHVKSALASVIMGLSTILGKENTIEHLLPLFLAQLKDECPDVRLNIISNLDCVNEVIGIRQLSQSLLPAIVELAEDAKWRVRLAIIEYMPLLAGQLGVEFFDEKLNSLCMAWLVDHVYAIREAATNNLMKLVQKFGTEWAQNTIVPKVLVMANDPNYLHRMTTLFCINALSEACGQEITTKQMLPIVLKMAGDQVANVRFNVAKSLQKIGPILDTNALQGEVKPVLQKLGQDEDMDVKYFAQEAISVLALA
UniProt P30153: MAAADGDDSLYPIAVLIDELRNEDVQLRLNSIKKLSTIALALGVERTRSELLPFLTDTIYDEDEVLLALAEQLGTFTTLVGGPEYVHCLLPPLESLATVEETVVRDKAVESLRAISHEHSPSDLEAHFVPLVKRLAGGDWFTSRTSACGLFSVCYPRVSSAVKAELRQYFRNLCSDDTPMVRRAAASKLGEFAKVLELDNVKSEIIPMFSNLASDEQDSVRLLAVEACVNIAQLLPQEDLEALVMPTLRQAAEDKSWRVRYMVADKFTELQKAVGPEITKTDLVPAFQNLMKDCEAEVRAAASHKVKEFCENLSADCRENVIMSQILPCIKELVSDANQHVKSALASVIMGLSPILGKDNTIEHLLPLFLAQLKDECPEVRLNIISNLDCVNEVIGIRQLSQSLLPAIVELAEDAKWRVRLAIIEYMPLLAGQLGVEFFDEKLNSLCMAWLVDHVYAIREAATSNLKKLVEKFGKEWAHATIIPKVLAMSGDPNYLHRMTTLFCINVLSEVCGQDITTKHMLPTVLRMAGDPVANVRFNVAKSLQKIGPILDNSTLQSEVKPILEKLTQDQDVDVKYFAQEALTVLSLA
UniProt P62714: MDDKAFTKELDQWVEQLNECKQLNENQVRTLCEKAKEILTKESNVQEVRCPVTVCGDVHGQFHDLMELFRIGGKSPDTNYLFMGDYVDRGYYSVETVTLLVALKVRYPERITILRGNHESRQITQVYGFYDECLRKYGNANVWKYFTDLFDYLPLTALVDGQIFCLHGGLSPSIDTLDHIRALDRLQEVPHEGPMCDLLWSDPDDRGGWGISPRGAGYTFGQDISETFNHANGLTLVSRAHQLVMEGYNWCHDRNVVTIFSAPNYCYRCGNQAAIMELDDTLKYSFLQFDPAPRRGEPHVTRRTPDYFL

B1: PPP2R2D (protein, UniProt Q66LE6 1-453)
chain: MAGAGGGGCPAGGNDFQWCFSQVKGAIDEDVAEADIISTVEFNYSGDLLATGDKGGRVVIFQREQENKSRPHSRGEYNVYSTFQSHEPEFDYLKSLEIEEKINKIRWLPQQNAAHFLLSTNDKTIKLWKISERDKRAEGYNLKDEDGRLRDPFRITALRVPILKPMDLMVEASPRRIFANAHTYHINSISVNSDHETYLSADDLRINLWHLEITDRSFNIVDIKPANMEELTEVITAAEFHPHQCNVFVYSSSKGTIRLCDMRSSALCDRHSKFFEEPEDPSSRSFFSEIISSISDVKFSHSGRYMMTRDYLSVKVWDLNMESRPVETHQVHEYLRSKLCSLYENDCIFDKFECCWNGSDSAIMTGSYNNFFRMFDRDTRRDVTLEASRESSKPRASLKPRKVCTGGKRRKDEISVDSLDFNKKILHTAWHPVDNVIAVAATNNLYIFQDKIN

How the values were obtained:
Experiment in all cases: affinity purification with mass spectrometry; StrepHA-tagged bait from doxycycline-induced, HBSS-starved HeLa cells; lysis in modified RIPA (150 mM NaCl, 50 mM Tris-HCl pH 8, 1% NP-40, 0.1% sodium deoxycholate); Strep-Tactin XT-4Flow beads overnight at 4°C; elution with 100 mM biotin; quantitative MS, n = 3, preparations compared with each other (PPP2CA or PPP2R5E against PPP1CA)
[1] = target: StrepHA-PPP2R5E (human (cDNA from HEK293 RNA)) (UniProt Q16537)
StrepHA-PPP2CA [2] = target: StrepHA-PPP2CA (UniProt P67775)
[3] = target: StrepHA-PPP1CA (human (cDNA from HEK293 RNA)) (UniProt P62136)
StrepHA-PPP2CA [4] = target: StrepHA-PPP2CA (UniProt P67775); remark: listed apart in the source

| Molecule | binding [1] | binding (StrepHA-PPP2CA [2]) | also measured |
| --- | --- | --- | --- |
| PPP2R1B (from UniProt P30154 1-601) | binds | binds | – |
| PPP2R1A (from UniProt P30153 1-589) | binds | – | – |
| PPP2CB (from UniProt P62714 1-309) (enzyme) | binds | – | – |
| PPP1CA (endogenous) (from UniProt P62136 1-330) (enzyme) | – | binds | – |
| PPP2CA (endogenous) (from UniProt P67775 1-309) (enzyme) | binds | – | binding [3]: binds |
| B1 | – | – | binding (StrepHA-PPP2CA [4]): binds |
